# Library screen at single concentrations

Amino acid sequences for entries named in this document (tags omitted). Residues count along the entry.
UniProt P9WPC5, whole entry: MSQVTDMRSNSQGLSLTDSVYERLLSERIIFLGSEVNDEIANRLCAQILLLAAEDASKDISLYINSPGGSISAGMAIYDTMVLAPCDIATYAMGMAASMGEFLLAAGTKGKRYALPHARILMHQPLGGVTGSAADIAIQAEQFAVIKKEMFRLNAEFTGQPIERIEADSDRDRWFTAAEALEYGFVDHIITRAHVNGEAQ
UniProt P9WPC3, whole entry partner: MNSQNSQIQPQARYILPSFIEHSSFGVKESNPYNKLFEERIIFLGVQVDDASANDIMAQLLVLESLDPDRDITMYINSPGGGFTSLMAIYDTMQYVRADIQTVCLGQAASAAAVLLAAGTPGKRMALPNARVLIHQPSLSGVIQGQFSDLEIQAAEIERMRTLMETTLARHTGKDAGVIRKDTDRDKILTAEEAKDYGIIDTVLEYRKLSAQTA
UniProt Q4DA54, 1-478: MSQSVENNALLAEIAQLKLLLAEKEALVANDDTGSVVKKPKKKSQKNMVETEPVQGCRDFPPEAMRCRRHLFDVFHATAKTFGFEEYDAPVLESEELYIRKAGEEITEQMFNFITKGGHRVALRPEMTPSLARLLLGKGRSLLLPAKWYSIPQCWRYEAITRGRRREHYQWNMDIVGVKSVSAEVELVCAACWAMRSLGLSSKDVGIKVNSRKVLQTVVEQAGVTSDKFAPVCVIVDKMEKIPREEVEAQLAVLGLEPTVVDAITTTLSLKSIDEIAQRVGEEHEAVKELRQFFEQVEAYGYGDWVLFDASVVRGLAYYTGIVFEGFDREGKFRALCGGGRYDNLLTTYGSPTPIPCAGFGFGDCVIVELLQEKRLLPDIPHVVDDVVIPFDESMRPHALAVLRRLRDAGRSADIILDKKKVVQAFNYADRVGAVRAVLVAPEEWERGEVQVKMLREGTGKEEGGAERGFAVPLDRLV
UniProt Q8IDJ8, 1-583: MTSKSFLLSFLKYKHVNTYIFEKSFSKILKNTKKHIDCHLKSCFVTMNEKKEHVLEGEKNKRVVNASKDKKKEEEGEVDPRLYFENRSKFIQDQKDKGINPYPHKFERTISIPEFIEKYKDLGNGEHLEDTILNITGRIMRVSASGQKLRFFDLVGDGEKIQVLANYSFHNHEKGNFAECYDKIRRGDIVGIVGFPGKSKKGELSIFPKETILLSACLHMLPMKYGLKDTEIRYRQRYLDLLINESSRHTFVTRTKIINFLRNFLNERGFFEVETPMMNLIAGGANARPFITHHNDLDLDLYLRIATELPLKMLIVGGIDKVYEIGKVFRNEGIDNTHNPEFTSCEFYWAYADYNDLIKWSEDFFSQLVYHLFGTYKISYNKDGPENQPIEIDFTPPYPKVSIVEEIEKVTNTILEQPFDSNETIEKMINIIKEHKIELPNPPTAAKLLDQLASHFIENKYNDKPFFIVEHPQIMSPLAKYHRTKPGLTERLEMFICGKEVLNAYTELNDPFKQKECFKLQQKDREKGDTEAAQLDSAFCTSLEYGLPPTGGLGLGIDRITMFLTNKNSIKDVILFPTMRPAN
UniProt P9WNZ1, whole entry: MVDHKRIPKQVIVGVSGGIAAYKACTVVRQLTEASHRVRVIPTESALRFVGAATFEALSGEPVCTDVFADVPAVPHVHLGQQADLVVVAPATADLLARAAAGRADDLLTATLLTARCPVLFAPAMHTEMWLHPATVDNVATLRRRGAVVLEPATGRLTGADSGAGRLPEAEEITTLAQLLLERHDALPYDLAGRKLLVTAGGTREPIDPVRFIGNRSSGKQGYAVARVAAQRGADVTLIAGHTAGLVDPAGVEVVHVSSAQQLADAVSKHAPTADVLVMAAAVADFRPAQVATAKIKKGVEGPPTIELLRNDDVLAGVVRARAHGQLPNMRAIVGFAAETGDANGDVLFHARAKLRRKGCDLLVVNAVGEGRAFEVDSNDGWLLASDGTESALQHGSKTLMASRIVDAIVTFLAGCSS
UniProt I6X8D2, whole entry: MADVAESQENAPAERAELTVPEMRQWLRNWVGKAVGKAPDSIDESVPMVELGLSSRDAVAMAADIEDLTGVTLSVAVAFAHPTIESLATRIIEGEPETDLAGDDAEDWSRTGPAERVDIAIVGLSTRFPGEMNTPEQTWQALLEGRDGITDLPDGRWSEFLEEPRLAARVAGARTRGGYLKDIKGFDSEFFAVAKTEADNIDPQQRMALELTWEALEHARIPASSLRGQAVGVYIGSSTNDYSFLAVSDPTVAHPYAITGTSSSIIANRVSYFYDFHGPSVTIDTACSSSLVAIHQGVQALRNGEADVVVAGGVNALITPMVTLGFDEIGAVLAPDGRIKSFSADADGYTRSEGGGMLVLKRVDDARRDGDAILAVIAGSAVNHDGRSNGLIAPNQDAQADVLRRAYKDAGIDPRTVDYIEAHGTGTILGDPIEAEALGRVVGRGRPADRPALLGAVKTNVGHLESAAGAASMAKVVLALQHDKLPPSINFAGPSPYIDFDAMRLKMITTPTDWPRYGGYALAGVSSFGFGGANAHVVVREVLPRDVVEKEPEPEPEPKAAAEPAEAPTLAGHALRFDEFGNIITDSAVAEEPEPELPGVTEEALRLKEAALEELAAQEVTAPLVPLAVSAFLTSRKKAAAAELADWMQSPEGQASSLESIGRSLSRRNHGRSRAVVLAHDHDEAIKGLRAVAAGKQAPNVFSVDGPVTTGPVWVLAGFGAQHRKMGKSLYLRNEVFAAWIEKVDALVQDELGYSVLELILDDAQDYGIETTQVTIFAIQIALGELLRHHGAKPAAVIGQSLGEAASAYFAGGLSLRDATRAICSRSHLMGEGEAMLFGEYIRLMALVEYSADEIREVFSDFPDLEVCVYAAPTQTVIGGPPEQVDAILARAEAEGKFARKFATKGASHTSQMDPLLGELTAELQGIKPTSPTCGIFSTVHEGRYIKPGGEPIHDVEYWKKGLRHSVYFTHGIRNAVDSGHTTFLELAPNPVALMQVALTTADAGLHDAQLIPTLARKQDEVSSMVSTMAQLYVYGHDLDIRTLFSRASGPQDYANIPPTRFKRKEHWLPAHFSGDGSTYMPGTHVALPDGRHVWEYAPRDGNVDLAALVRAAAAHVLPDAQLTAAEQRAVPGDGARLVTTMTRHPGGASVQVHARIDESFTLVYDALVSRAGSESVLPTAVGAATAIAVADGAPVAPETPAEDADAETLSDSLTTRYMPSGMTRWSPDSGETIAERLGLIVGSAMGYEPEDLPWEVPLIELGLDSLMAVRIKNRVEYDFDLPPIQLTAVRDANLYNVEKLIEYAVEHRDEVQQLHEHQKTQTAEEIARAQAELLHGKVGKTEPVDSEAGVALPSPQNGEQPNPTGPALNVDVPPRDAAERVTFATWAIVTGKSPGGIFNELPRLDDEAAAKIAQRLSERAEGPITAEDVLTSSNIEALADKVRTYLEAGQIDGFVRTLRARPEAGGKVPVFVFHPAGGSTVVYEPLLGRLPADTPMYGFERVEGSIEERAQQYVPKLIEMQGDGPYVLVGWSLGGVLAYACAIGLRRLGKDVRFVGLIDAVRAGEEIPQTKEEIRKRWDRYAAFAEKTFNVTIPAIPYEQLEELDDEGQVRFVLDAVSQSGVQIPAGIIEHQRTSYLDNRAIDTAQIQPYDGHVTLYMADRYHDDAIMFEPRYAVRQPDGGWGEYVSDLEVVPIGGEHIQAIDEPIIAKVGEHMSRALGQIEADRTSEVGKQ

ClpP1P2: 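Protease assay of ClpP1P2, read by the AMC dye that it sets free. Target: ClpP1P2, Mycobacterium tuberculosis (UniProt P9WPC5 and UniProt P9WPC3). Compounds at 50 µM. Higher reads as stronger inhibition, judged from the few compounds that gave an IC50. Most other retested compounds had strongly negative values. About 69,000 compounds were tested under these conditions; 0.015% (about 10) showed 50% or more at least once.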
TcHisRS: 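Histidine-tRNA ligase, Trypanosoma cruzi CL Brener (UniProt Q4DA54). Enzyme assay of histidyl-tRNA synthetase; the read-out is not stated. Tested at 30 µM. Higher reads as stronger inhibition (inferred: compounds with an IC50 in retests scored well above the rest). Of about 69,000 compounds tested this way, about 31 (0.045%) reached 50% or more in at least one test.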
PfKRS1: 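Lysine-tRNA ligase, Plasmodium falciparum 3D7 (UniProt Q8IDJ8). Enzyme assay of the cytosolic lysyl-tRNA synthetase in 384-well plates, read by luminescence. Compounds at 30 µM. Direction is inferred from only a few compounds that gave an IC50; most scored high, so higher reads as stronger inhibition. Size under these conditions: about 69,000 compounds, about 49 of them at 50% or above in at least one test.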
CoaBC: 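Coenzyme A biosynthesis protein CoaBC, Mycobacterium tuberculosis (UniProt P9WNZ1). Enzyme assay of CoaBC with a phosphate dye (Biomol Green) read at 650 nm. Compounds at 30 µM. Direction is inferred from only a few compounds that gave an IC50; most scored high, so higher reads as stronger inhibition. Most strong results did not repeat in a second test. Of about 67,000 compounds tested this way, about 40 (0.06%) reached 50% or more in at least one test.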
Leishmania in macrophages: 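Cell assay of Leishmania donovani living inside macrophages; the read-out is not stated. Tested at 30 µM. Direction is inferred from retests: higher values go with stronger inhibition. About 69,000 compounds were tested under these conditions; 1.5% (about 1,000) showed 50% or more at least once.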
Pks13 thioesterase: 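Enzyme assay of the thioesterase domain of polyketide synthase 13; the read-out is not stated. Target: Polyketide synthase Pks13, Mycobacterium tuberculosis (UniProt I6X8D2). Tested at 30 µM. Higher reads as stronger inhibition (inferred from which compounds were picked for retests). Size under these conditions: about 67,000 compounds, about 300 of them at 50% or above in at least one test.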

Results are given as percent effect.
How 0% and 100% were set is not recorded. Most values in the screen are low, and negative values occur.
Compounds were drawn at random from those tested, without regard to their results.
Two or more numbers in one place are separate tests of the same structure; such repeats can differ widely.

Result for Cc1ccc(OCC(O)CN2CCC(Cn3cccn3)CC2)cc1 (stereo unspecified) was ClpP1P2: -6.243%; TcHisRS: 6.464%; PfKRS1: 0.6683%; CoaBC: 0.527%; Leishmania in macrophages: 42.13%; Pks13 thioesterase: -10.21%.
Result for Cn1ccnc1C1(O)CCN(C(=O)CCc2ccccc2)CC1 was ClpP1P2: -6.175%; TcHisRS: 1.695%; PfKRS1: 0.5238%; CoaBC: 10.17%; Pks13 thioesterase: -7.09%.
Result for c1ccc(Cc2noc(CCNC3CCOC4(CCOCC4)C3)n2)cc1 (stereo unspecified) was ClpP1P2: -15.21%; TcHisRS: -1.657%; PfKRS1: 2.779%; CoaBC: 13.76% & 23.3%; Leishmania in macrophages: -31.17%; Pks13 thioesterase: 5.505%.
Result for CCn1cc(CN2CCCN(C3Cc4ccccc4C3)CC2)cn1 was ClpP1P2: -11.64%; TcHisRS: 14.16%; PfKRS1: 3.324%; CoaBC: 4.187%; Leishmania in macrophages: 29.63%; Pks13 thioesterase: -20.29%.
Result for CCC1CN(C(=O)c2[nH]nc(C)c2Br)CCO1 (stereo unspecified) was ClpP1P2: 2.818%; TcHisRS: 6.186%; PfKRS1: 1.604%; CoaBC: -3.297%; Leishmania in macrophages: 23.86%; Pks13 thioesterase: -34%.
Result for Cc1ccc(C)c(-n2nnnc2SCN2CCCCC2=O)c1 was ClpP1P2: -3.253%; TcHisRS: 2.793%; PfKRS1: 3.603%; CoaBC: -1.21%; Leishmania in macrophages: 1.698%; Pks13 thioesterase: -25.54%.
Result for CN(Cc1cccc(O)c1)Cc1cnn(C)c1 was ClpP1P2: -0.6264%; TcHisRS: 2.762%; PfKRS1: 0.9393%; CoaBC: 1.401%; Leishmania in macrophages: 31.77%; Pks13 thioesterase: -35.67%.
Result for Cc1cnc2c(c1NCc1ccncc1)c(=O)n(C)c(=O)n2C was ClpP1P2: 7.495%; TcHisRS: 4.959%; PfKRS1: 3.327%; CoaBC: -6.183%; Leishmania in macrophages: 31.93%; Pks13 thioesterase: -6.084%.
Result for O=C(NC1CC1)c1cc(NC(=O)N2CCCC2)ccc1Cl was ClpP1P2: -29.94%; TcHisRS: 1.961%; PfKRS1: 1.439%; CoaBC: 0.7317%; Leishmania in macrophages: -1.137%; Pks13 thioesterase: 5.971%.
Result for COCc1nc2cc(NCc3ccc(C)o3)ccc2o1 was ClpP1P2: 1.993%; TcHisRS: 2.674%; PfKRS1: 15.28%; CoaBC: 13.04%; Leishmania in macrophages: 15.6%; Pks13 thioesterase: -10.9%.
Result for CCC(CC)N(Cc1cc(=O)n(C)c(=O)n1C)C1CC1 was ClpP1P2: 7.9%; TcHisRS: -3.158%; PfKRS1: 0.9016%; CoaBC: 5.976%; Leishmania in macrophages: 4.835%; Pks13 thioesterase: 9.24%.
Result for CO[C@@H]1CCN(C(=O)Cc2cccc(F)c2)[C@H]1Cc1cccnc1 was ClpP1P2: 1.038%; TcHisRS: 1.676%; PfKRS1: 3.898%; CoaBC: -0.3636%; Pks13 thioesterase: -4.939%.
Result for CC(C)(C)n1cc(C(=O)NCCN2CCOCC2)c2cccnc21 was ClpP1P2: -0.7249%; TcHisRS: 5.682%; PfKRS1: 2.805%; CoaBC: -1.699%; Leishmania in macrophages: 2.421%; Pks13 thioesterase: 11.04%.
Result for CCn1c(CNCC2CCCN2c2cccnn2)nc2ccccc21 (stereo unspecified) was ClpP1P2: -31.23%; TcHisRS: 8.069%; PfKRS1: -0.1125%; CoaBC: -0.6818%; Leishmania in macrophages: 5.028%; Pks13 thioesterase: 7.315%.
Result for [H][C@@]12C[C@@H](O)CN1C[C@@H](Cc1ccccc1)N(Cc1ccccc1Cl)C2 was Leishmania in macrophages: -26.58%.
Result for O=C(O)C(F)(F)F.[H][C@@]12CN(Cc3csc(C)n3)CCO[C@]1([H])CN(C(=O)CC1CC1)C2 was Leishmania in macrophages: 4.734%.
Result for CCc1noc(CN(C)CCC(=O)Nc2ccc(Cl)cc2)n1 was ClpP1P2: -3.118%; TcHisRS: 5.759%; PfKRS1: -1.393%; CoaBC: 3.64%; Leishmania in macrophages: 6.996%; Pks13 thioesterase: -39.81%.
Result for Cc1nnc(CN2CCN(C(C)c3nc(C4CC4)no3)CC2)o1 (stereo unspecified) was ClpP1P2: 0.7036%; TcHisRS: 3.704%; PfKRS1: -1.206%; CoaBC: -13.4%; Leishmania in macrophages: 15.28%; Pks13 thioesterase: -25.35%.
Result for c1ccc2c(Cc3nnc([C@H]4CCN(C5CCOCC5)C4)o3)c[nH]c2c1 was ClpP1P2: -3.951%; TcHisRS: 0.4975%; PfKRS1: 3.839%; CoaBC: 11.98%; Leishmania in macrophages: 28.08%; Pks13 thioesterase: 10.95%.
Result for CC(C)c1nc2c(n1C)CCN(Cc1nc(-c3ccsc3)no1)C2 was ClpP1P2: -2.864%; TcHisRS: -1.149%; PfKRS1: 1.769%; CoaBC: 8.769%; Leishmania in macrophages: 41.98%; Pks13 thioesterase: -5.747%.
Result for O=C(COc1coc(CN2CCCCC2)cc1=O)Nc1ccccc1Cl was ClpP1P2: -0.2516%; TcHisRS: 0.5464%; PfKRS1: 2.671%; CoaBC: -0.9421%; Leishmania in macrophages: 31.64%; Pks13 thioesterase: -32.29%.
Result for CCN1C[C@H]2C3(CCN(C(=O)NC(C)C)CC3)CC[C@@]2(C(=O)NC)C1 was ClpP1P2: -7.031%; TcHisRS: -2.062%; PfKRS1: -3.854%; CoaBC: 3.202%; Pks13 thioesterase: -21.93%.
Result for [H][C@]12CN(C(=O)OC)CCN1C[C@H](CO)[C@H]2c1ccccc1 was Leishmania in macrophages: 11.78%.
Result for CC(C)(C)NC(=O)N1CCN(Cc2cccnc2)CC1 was ClpP1P2: -3.47%; TcHisRS: -10.31%; PfKRS1: -1.989%; CoaBC: -2.685%; Leishmania in macrophages: 0.5283%; Pks13 thioesterase: -1.608%.

2 of the entries, repeated:

Compound,ClpP1P2,TcHisRS,PfKRS1,CoaBC,Leishmania in macrophages,Pks13 thioesterase
CC(C)(C)NC(=O)N1CCN(Cc2cccnc2)CC1,-3.47,-10.31,-1.989,-2.685,0.5283,-1.608
CC(C)c1nc2c(n1C)CCN(Cc1nc(-c3ccsc3)no1)C2,-2.864,-1.149,1.769,8.769,41.98,-5.747

From ChEMBL document CHEMBL3988442, “University of Dundee, Small-Polar-MMV Screening Library” (2021).